Library screening results

Measurements from “University of Dundee, Small-Polar-MMV Screening Library” (2021), ChEMBL document CHEMBL3988442.

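Viability assay of Plasmodium falciparum sporozoites; the read-out is not stated. The concentration is filed as 10 mM, unlikely as a test dose, so the dose is not known. Direction is inferred from retests: higher values go with lower viability. Strong results were mostly tested again. Size under these conditions: about 34,000 compounds, about 280 of them at 50% or above in at least one test.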

Each number is a percent effect as filed.
How 0% and 100% were set is not recorded. Most values in the screen are low, and negative values occur.
The compounds are a random part of those screened.
Two or more numbers in one place are separate tests of the same structure; such repeats can differ widely.

* Cn1cc2c(n1)C(CNCc1ccco1)OCC2.O=C(O)C(F)(F)F.O=C(O)C(F)(F)F (stereo unspecified) : 24.65%
* Cc1nc(C)n(C2CCCN(C(=O)c3cnc[nH]3)C2)n1 (stereo unspecified) : 5.92%
* [H][C@]12CCN(S(=O)(=O)c3ccccc3)[C@@]1([H])CC[C@H](COC)O2 : -22.65%
* COc1c(C2CCCN2C(=O)c2cnccn2)c(C)nn1C (stereo unspecified) : -0.3741%
* O=C(Cn1cccnc1=O)NC(Cc1ccsc1)c1ccccn1 (stereo unspecified) : -6.754%
* Cc1ccc(NC2CCN(C(=O)CCCn3ccnc3C)CC2)nn1 : 5.478%
* Cc1cccc(CN2CCC(c3csc4nccn34)CC2)n1.O=CO : 3.885%
* O=C(c1cncs1)N1CCOCC(Cc2ccccn2)C1 (stereo unspecified) : 4.597%
* Cl.Cn1cc([C@@H]2CN(S(=O)(=O)c3cccs3)C[C@H]2N)c2ccncc21 : -0.5895%
* O=C(O)C(F)(F)F.O=C(c1ccoc1)N1CCOC2(COCCN(CC3CC3)C2)C1 (stereo unspecified) : 10.87%
* CCC(NC(=O)c1nn(C)cc1C(=O)O)c1ccccc1 (stereo unspecified) : 2.775%
* Cc1cccc(Nc2cc(C)nc(C3CCN(C(C)C)C3)n2)n1.O=CO (stereo unspecified) : 11.41%
* Cc1cnn(CCNCc2ccccc2OCc2ccncc2)c1 : 4.105%
* Cc1ccc2c(c1)C1(CCN(C(N)=O)CC1)CN2C(=O)N(C)C : 6.229%
* CC(NC(=O)N1CCN(c2ccc(Cl)cc2)CC1)C(=O)N1CCSCC1 (stereo unspecified) : 8.004%
* c1ccc(CCN2CCCC2c2ccnc(Nc3cnccn3)n2)cc1 (stereo unspecified) : -2.373%
* Cc1cnn(CC2CCCN2C(=O)c2ccc(OCC3CC3)nc2)c1 (stereo unspecified) : -0.4233%
* CC1CCN(CCNC(=O)c2ccn(-c3ccccc3)n2)CC1 : 6.181%
* O=S(=O)(Cc1ccccc1F)NCCCN1CCCCC1 : 2.146%
* O=C1CC[C@@H](CN(Cc2ccncc2)Cc2nc(CC3CC3)no2)N1 : -24.15%
* CC(=O)N1CCN(C(=O)c2cc(-n3cnnn3)ccc2Cl)CC1 : 4.171%
* Cc1noc(CCCC(=O)NCC2CCS(=O)(=O)C2)n1 (stereo unspecified) : 11.07%
* CCc1ccc(-c2cn3c(C(=O)NCC(C)C(=O)NC)csc3n2)cc1 (stereo unspecified) : -17.37%
* [H][C@@]12CS(=O)(=O)C[C@]1([H])N(C(=O)CCc1ccccc1)CCN2C(=O)N(C)C : -11.18%
* COCCOc1ncccc1C(=O)N1CCCC(n2ccnc2C)C1 (stereo unspecified) : -7.194%
* CN1CCN(Cc2ccsc2)Cc2cccnc21 : 7.729%
* Cc1ccccc1N1CCN(C(=O)c2ccc[nH]2)C(C)C1 (stereo unspecified) : -5.301%
* CCCn1ccnc1CN1C[C@@H](CN2CCCN(C)CC2)[C@@H](CO)C1 : 13.53%
* OC[C@@H]1CCCN1c1ccc(-c2nc(CCc3ccccc3)no2)cn1 : -12.02%
* CN(C)c1ccnc(C2CCCN2)n1.Cl (stereo unspecified) : -0.6333%
* CN(Cc1ccccc1)C(=O)CSc1ccc2c(c1)OCCO2 : -54.77% and 36.27% and -39.05%
* CC(C)Nc1ncnc2c1CCN(C(=O)c1ccc[nH]1)CC2 : -7.967%
* Cn1ccnc1CN1CCCN(C(=O)COC2CCCC2)CC1 : -1.548%
* CC(C)Cc1cc(NC(=O)c2ccccn2)n(C)n1 : 2.863%
* CN1CCC(CN(C)C(=O)c2cc(C3CCCN3C)ccn2)CC1 (stereo unspecified) : 1.752%